Results deposited as PubChem BioAssay AID1259424 (University of Nebraska Medical Center, 2018)

Aim: 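Find knockdowns that reproduce the expression shifts seen after KSR1 loss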 (primary screen)
Cell system: human HCT116 colon cancer cells
Reagents: siRNA pool against human genes, 50 nM
Read-out: 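Six signature mRNAs by branched-DNA multiplex assay, scaled to two housekeeping genes and non-targeting median, log2; matched to mean KSR1 knockdown profile by Pearson correlation and euclidean distance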
Direction: mean correlation with KSR1 profile: higher = expression change more like KSR1 knockdown
The whole screen tested about 14,000 reagents; this is a part drawn at random. 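Higher correlation or smaller distance means closer resemblance to KSR1 loss; control wells, including KSR1 knockdowns, recur on many plates.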 A reagent listed more than once was tested more than once; the source does not tell the runs apart. Not all columns of the deposit are shown. The record does not give: the time to read-out.

gene | PubChem SID | mean correlation with KSR1 profile
SCML2 | SID363996932 | -0.0658
TTI2 | SID364003257 | 0.328
FAP | SID363995442 | -0.161
PXDN | SID364005245 | -0.00522
VWA5A | SID363998991 | 0.237
TOLLIP | SID364001327 | -0.28
TOLLIP | SID364001327 | -0.492
SULT1E1 | SID363996326 | 0.291
LENG8 | SID364004414 | -0.407
KCNK5 | SID363994807 | -0.344
ELOVL3 | SID364004710 | 0.27

3 entries from above, reformatted.
| gene | PubChem SID | mean correlation with KSR1 profile |
| --- | --- | --- |
| PXDN | SID364005245 | -0.00522 |
| VWA5A | SID363998991 | 0.237 |
| TOLLIP | SID364001327 | -0.28 |

The list goes on.
gene | PubChem SID | mean correlation with KSR1 profile
LINC00474 | SID364002093 | -0.434
FANCC | SID363991472 | -0.458
VANGL2 | SID364005220 | 0.0761
ARMCX3 | SID364000231 | -0.48
PUM1 | SID363999026 | 0.734
ADGB | SID364005474 | -0.114
PARP16 | SID364000582 | -0.626
STOX2 | SID364005211 | -0.673
GFRA1 | SID363996184 | -0.37
